Laboratory results taken from the M2OR odorant receptor database.
Changes are numbered by the printed parent chain. The entries are a selection whose mix differs from that of the whole data set. Calls are pooled over several reports, among them a noisy single-well screen. Some of the results follow.

Chains of the proteins cited; added tags and fusions are not shown. Chains listed by the source or under a name are the forms on record and can include a tag or linker.
O51E1, as listed by the source: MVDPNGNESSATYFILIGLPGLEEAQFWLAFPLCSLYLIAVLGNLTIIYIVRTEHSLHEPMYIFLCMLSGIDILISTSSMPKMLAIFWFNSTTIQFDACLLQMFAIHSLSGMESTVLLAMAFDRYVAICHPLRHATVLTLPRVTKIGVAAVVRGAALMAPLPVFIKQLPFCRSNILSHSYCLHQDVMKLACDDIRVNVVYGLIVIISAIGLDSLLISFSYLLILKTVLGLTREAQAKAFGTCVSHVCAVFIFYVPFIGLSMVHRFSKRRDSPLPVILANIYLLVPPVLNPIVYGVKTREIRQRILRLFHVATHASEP
O4A15, as listed by the source: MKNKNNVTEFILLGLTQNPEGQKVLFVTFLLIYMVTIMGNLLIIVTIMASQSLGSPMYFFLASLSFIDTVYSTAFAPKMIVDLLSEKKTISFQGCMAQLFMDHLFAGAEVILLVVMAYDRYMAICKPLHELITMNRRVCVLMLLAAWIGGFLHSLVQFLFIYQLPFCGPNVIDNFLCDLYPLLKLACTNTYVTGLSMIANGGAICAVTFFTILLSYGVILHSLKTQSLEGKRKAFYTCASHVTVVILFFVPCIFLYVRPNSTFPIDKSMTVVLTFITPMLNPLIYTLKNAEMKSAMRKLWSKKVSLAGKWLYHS
O4F17, as listed by the source: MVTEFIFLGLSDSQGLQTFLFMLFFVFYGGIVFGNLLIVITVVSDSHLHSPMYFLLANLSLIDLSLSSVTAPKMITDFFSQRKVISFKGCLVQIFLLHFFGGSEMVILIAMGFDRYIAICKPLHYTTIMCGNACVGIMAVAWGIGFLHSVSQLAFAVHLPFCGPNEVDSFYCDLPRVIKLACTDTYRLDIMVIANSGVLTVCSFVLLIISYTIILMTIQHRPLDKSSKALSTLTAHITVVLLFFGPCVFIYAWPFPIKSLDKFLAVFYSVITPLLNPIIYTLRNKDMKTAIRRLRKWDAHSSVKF
O4C46, as listed by the source: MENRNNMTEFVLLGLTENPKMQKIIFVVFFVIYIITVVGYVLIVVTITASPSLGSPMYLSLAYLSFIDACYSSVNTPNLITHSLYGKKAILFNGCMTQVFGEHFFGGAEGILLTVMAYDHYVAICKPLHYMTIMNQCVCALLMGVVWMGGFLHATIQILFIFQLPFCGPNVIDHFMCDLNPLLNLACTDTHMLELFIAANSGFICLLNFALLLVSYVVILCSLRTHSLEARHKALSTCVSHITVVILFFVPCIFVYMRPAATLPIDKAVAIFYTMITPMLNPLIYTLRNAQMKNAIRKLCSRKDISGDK

Tests used:
Conditions in all cases: stereoisomer not certain
[1] = test system: T1, O2T11
T1 sequence (whole entry): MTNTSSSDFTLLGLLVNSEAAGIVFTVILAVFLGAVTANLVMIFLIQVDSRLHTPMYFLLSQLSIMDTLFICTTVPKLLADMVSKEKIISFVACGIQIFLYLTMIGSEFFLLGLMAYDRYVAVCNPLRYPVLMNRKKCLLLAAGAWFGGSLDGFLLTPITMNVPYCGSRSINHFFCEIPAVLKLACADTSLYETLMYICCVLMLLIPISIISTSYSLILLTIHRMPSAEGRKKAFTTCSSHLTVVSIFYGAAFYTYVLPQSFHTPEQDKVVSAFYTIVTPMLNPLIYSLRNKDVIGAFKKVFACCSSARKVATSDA
In short: (§1)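 Each receptor–molecule pair is labelled responsive or non-responsive (inactive) according to whether the original authors judged the measured signal statistically different from baseline. The data were taken from the main text and supplementary material of published papers and checked for typos and inconsistencies. Assay methods differed by source, with transient luciferase assays in mammalian cell lines being common.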

[2] = test system: T2, O2T29
T2 sequence (whole entry): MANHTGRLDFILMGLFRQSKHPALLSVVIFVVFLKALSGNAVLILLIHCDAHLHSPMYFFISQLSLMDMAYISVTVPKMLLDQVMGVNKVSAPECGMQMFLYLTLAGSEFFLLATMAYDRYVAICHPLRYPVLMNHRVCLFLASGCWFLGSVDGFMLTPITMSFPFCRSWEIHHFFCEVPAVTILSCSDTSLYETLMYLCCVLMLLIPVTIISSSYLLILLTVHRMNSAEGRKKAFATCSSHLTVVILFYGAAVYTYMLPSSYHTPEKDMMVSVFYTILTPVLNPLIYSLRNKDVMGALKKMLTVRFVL
In short: as §1

[3] = test system: T3, O2T29; remark: listed apart in the source
T3 sequence (whole entry): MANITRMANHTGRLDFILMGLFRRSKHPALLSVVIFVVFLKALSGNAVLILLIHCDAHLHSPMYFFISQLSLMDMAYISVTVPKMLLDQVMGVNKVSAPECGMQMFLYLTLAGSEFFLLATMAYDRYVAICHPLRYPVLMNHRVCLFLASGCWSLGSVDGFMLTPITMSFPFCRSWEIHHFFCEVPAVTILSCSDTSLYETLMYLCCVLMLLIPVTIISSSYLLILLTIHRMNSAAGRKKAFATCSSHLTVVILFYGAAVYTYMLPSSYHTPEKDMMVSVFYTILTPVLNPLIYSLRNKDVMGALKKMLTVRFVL
In short: as §1

[4] = test system: T4, O2T33
T4 sequence (whole entry): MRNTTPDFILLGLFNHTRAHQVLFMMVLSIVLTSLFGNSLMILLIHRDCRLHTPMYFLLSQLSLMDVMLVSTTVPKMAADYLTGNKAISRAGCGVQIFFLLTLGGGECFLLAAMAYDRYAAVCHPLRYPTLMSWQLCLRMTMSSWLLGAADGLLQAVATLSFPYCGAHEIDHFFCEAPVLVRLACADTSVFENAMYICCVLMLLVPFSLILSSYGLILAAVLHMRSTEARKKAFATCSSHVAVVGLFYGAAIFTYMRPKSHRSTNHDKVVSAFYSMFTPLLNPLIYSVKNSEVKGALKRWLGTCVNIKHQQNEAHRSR
In short: as §1

[5] = test system: T5, O2T34
T5 sequence (whole entry): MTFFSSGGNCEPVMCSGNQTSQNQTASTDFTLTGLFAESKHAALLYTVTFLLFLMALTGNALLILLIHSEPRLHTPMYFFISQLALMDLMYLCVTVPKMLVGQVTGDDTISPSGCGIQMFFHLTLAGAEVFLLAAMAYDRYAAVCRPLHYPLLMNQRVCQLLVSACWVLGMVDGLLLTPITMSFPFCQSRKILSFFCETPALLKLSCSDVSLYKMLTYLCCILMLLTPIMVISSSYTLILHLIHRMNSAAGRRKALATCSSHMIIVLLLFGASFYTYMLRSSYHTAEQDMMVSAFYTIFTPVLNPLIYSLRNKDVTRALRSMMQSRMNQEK
In short: as §1

[6] = test system: T6, O2T35
T6 sequence (whole entry): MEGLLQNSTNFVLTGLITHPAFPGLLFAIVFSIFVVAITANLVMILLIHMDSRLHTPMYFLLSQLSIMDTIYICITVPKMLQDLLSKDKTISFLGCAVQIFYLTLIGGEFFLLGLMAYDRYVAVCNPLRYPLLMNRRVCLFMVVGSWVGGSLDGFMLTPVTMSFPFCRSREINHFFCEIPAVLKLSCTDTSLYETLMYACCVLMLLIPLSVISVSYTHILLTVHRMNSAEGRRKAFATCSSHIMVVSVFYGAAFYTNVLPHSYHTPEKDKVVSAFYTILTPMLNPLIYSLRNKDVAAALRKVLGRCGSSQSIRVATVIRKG
In short: as §1

[7] = test system: O4A15
In short: as §1

[8] = test system: T7, O4A47
T7 sequence (whole entry): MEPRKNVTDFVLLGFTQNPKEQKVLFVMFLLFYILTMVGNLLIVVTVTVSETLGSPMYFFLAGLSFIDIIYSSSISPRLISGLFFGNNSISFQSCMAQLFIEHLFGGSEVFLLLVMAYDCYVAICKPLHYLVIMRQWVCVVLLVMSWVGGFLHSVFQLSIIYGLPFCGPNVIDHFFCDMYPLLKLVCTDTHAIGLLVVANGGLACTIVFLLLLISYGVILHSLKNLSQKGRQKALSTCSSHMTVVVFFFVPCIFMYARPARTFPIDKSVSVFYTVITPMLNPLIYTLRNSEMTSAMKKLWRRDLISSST
In short: as §1

[9] = test system: O4C46
In short: as §1

[10] = test system: T8, O4F17
T8 sequence (whole entry): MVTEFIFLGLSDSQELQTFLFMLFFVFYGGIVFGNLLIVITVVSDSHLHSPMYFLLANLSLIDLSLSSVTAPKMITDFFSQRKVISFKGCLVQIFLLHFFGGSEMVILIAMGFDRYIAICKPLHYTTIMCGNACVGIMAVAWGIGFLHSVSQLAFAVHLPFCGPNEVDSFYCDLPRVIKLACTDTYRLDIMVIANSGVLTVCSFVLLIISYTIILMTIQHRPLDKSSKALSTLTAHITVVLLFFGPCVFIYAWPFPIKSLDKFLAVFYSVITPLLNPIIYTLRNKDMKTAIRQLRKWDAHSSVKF
In short: as §1

[11] = test system: T9, O4F17; remark: listed apart in the source
T9 sequence (whole entry): T8 sequence (whole entry) with E15G, Q293R
In short: as §1

[12] = test system: T10, O4F21
T10 sequence (whole entry): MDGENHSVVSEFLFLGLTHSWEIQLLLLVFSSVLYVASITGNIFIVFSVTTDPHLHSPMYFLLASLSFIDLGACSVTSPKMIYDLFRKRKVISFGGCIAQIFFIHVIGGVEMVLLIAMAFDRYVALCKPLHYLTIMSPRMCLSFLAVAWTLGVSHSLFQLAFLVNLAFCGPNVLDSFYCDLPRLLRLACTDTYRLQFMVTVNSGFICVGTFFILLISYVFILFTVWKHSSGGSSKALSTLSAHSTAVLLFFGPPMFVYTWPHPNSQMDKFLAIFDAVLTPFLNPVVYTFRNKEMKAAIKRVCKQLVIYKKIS
In short: as §1

[13] = test system: T11, O51A4
T11 sequence (whole entry): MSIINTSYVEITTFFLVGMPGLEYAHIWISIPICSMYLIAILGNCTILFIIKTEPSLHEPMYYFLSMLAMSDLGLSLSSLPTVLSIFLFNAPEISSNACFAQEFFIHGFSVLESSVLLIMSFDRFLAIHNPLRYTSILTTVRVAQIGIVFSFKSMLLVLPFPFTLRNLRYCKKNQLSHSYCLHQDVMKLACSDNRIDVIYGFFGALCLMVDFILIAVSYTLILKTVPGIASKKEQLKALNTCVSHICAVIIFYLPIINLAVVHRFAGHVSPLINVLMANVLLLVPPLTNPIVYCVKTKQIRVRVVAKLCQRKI
In short: as §1

[14] = test system: T12, O51B4
T12 sequence (whole entry): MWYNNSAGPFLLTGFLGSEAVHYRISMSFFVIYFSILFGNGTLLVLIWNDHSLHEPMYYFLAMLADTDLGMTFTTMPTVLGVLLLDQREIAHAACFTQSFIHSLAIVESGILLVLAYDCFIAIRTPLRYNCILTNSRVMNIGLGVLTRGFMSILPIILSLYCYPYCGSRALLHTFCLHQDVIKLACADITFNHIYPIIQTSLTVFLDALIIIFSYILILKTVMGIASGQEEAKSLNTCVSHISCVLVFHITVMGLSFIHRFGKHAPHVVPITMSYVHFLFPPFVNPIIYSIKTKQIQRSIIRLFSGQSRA
In short: as §1

[15] = test system: T13, O51B5
T13 sequence (whole entry): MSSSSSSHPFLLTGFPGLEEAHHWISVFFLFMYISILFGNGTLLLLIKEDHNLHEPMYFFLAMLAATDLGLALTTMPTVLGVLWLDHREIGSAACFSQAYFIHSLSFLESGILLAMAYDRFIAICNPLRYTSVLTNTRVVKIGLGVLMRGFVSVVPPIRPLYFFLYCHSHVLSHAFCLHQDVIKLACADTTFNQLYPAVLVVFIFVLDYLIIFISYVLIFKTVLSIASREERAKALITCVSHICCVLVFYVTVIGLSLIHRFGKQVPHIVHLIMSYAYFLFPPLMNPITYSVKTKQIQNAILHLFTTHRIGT
In short: as §1

[16] = test system: T14, O51B6
T14 sequence (whole entry): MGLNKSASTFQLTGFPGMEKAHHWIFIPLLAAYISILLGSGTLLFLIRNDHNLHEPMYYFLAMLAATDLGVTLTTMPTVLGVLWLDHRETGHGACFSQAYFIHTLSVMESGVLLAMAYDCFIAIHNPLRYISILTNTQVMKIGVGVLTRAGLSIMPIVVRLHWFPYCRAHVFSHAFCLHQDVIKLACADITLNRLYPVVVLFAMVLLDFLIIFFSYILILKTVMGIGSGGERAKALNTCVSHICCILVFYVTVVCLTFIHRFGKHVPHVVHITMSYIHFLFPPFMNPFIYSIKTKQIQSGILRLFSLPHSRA
In short: as §1

[17] = test system: T15, O51E1
T15 sequence (whole entry): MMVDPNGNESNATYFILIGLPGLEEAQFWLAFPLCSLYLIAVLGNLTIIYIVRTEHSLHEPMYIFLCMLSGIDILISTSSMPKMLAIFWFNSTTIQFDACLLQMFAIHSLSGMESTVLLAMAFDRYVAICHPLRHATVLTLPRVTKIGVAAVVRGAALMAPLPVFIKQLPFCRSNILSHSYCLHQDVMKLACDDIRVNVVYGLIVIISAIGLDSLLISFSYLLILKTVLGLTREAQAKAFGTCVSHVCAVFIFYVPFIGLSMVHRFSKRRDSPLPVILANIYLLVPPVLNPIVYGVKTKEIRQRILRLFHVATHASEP
In short: as §1

[18] = test system: T16, O51F1
T16 sequence (whole entry): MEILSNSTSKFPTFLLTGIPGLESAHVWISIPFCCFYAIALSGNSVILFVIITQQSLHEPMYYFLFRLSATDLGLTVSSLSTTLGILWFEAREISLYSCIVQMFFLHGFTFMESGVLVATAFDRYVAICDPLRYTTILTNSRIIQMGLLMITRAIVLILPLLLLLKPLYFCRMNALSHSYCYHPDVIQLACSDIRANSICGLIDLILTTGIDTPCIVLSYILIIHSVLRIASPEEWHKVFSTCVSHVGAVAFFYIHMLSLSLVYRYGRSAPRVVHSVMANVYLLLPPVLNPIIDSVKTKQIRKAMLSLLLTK
In short: as §1

[19] = test system: T17, O51F2
T17 sequence (whole entry): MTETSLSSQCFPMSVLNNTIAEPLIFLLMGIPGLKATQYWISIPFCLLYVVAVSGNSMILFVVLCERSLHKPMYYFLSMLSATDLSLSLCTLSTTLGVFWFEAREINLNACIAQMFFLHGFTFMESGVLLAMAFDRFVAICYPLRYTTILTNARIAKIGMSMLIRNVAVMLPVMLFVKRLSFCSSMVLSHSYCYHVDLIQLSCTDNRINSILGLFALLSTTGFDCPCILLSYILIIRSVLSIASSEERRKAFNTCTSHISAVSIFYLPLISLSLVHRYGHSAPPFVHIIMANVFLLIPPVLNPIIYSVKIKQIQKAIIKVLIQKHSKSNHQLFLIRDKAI
In short: as §1

[20] = test system: O51E1; remark: listed apart in the source
In short: as §1

Measured: odorant receptor agonist call

CCCCCCCCCCC=O
active: [6] | [16]
not listed: [20]
inactive: all other assays above

COc1cc(C=O)ccc1O
active: [6] | [12] | [14]
not listed: [20]
inactive: all other assays above

CC(=O)OC1CC2CCC1(C)C2(C)C (centres undefined)
active: [11] | [16]
not listed: [20]
inactive: all other assays above

CC(C)CC(=O)O
active: [17] | [20]
inactive: all other assays above

CC(C)(C)c1ccc(CCC=O)cc1
active: [11] | [16]
not listed: [20]
inactive: all other assays above

COc1cc(C)ccc1O
active: [11]
not listed: [20]
inactive: all other assays above

CCC1(O)C2(C)CCC(C2)C1(C)C (centres undefined)
not listed: [20]
inactive: all other assays above
